Measurements reported in patent EP2954896A1, “Small molecule inhibitors of the E3 Ligase Skp2 in depression and other diseases” (Max-Planck-Gesellschaft zur Förderung der Wissenschaften …, priority 2014, dated 2015).

Assay: Chronic PAR treatment after chronic social defeat stress: physiological and neuroendocrine parameters
Format: in vivo, mice
From the text: Initially, wild-type and 51 KOmice were split into 2 x 2 groups (control WT, control FKBP51^-/-, defeat WT, defeat FKBP51^-/-) and subjected to the chronic stress procedure described below. After cessation of the stressor, groups were subdivided into vehicle-treated and paroxetine-treated animals, resulting in 8 groups (n = 7-13 per group). The treatment phase lasted for three weeks. The behavioral tests took place during the last week of the paroxetine treatment.
The CSDS paradigm lasted for 21 days. Briefly, the experimental mice were introduced into the home cage (45 cm x 25 cm) of a dominant resident mouse and defeated shortly after. When the defeat was achieved, the animals were separated by a wire mesh, preventing physical but allowing sensory contact for 24 h. Each day, stressed animals were defeated by another unfamiliar, dominant resident mouse in order to exclude a repeated encounter throughout the experiment. The daily defeat was performed between 11:00 and 16:00 h; varying starting times reduced the predictability of the stressor and therefore minimized a potential habituation effect. Experimental mice were always defeated by resident males during the entire stress period. Control mice were housed in their home cages during the course of experiment. Both stress and control animals were handled daily during the stress procedure; body weight for all mice was assessed at the beginning of the experiment, after the cessation of the stress period, and on the day of killing. Animals that underwent the stress procedure were subsequently single housed in standard cages.
Paroxetine (GlaxoSmithKline, Munich, Germany) was administered via drinking water.
The FST also served as an acute stressor in order to determine the stress response by measuring corticosterone plasma concentrations. After the FST, all mice were towel-dried and placed into their home cage to recover from the acute stressor. Blood samples were taken by tail cut. 30 min (stress response) and 90 min (stress recovery) after the onset of the FST. […]

Fc1ccc([C@@H]2CCNC[C@H]2COc2ccc3c(c2)OCO3)cc1 [PAR, paroxetine]
adrenal gland weight (51KO mice): reduced size
adrenal gland weight (WT mice): adrenal gland enlargement
basal corticosterone (three weeks after the stressor): decreased basal corticosterone especially in 51 KOmice
